The supplement of paper PMC10849652
Some of the results follow.

By UniProt entry, the sequences of proteins in these tests, tags left out. Where a name states a change or a piece, a line headed by the entry shows the natural chain unless it says otherwise.
UniProt Q9Y5W9: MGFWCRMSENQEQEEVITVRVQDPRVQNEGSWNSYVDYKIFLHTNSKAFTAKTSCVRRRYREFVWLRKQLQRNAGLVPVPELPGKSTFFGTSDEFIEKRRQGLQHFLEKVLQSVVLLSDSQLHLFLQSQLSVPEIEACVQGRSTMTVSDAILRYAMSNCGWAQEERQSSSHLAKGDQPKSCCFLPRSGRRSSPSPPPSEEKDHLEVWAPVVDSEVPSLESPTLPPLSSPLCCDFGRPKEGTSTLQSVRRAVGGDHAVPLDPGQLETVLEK
UniProt Q9H4L7: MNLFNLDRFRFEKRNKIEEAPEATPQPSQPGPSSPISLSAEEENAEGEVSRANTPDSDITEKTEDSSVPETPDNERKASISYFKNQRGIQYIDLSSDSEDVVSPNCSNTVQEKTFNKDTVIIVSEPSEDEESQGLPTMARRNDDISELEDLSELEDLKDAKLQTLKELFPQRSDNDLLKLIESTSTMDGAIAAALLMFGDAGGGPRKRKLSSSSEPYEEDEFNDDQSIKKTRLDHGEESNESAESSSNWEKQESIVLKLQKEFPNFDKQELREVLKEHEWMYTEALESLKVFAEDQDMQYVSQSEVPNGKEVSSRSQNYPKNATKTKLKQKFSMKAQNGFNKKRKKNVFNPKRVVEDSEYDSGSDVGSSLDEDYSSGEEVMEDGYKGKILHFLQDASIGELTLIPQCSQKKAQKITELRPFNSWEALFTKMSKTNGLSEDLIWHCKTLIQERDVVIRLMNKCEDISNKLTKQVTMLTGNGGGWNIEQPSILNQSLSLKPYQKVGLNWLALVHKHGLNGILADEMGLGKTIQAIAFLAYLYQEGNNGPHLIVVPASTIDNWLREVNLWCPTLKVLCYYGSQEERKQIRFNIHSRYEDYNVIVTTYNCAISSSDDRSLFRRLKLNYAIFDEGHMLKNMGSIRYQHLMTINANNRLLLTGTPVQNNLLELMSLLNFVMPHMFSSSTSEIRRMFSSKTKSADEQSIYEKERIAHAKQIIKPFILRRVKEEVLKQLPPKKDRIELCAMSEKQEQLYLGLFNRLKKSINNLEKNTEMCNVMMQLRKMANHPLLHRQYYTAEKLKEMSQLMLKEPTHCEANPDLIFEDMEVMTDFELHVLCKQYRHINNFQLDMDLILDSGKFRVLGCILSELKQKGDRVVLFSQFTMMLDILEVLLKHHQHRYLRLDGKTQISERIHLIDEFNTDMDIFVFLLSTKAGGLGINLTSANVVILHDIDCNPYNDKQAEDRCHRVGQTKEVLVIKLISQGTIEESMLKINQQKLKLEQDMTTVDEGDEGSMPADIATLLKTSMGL
UniProt O00193: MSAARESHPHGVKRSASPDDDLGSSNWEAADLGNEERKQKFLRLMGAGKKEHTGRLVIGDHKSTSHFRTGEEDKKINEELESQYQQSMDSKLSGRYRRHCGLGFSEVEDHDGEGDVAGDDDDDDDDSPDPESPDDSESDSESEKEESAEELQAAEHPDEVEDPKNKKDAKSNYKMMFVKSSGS
UniProt Q8NDV3: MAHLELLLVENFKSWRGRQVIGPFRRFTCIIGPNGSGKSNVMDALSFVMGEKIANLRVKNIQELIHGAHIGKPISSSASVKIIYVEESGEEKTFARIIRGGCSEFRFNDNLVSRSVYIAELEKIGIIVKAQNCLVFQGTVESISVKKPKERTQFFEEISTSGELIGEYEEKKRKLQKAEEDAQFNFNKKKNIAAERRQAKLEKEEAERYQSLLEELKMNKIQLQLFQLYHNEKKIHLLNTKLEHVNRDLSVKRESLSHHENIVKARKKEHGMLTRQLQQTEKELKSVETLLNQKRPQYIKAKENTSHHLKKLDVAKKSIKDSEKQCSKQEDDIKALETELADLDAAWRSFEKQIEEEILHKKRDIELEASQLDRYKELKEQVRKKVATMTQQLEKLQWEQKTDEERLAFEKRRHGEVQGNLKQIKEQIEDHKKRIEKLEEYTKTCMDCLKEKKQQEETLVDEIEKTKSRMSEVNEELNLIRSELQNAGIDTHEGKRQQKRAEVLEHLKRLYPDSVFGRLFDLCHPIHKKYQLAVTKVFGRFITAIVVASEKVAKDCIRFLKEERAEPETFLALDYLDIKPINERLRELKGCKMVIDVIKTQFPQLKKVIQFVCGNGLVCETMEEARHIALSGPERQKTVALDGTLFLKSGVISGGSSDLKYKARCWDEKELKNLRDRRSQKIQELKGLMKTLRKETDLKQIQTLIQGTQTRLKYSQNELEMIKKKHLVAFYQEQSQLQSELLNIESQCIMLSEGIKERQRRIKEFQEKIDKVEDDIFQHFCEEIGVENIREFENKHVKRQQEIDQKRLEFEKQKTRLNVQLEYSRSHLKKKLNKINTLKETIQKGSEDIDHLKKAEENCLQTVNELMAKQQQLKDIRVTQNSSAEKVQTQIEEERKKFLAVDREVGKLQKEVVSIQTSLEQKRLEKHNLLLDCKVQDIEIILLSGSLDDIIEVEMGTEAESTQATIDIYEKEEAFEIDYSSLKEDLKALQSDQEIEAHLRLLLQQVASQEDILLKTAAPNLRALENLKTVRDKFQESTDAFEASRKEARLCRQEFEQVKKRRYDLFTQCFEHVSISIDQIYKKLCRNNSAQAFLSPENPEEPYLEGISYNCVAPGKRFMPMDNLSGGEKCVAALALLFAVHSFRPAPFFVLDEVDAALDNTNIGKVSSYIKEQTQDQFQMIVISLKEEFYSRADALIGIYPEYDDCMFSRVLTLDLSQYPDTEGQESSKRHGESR
UniProt O60906: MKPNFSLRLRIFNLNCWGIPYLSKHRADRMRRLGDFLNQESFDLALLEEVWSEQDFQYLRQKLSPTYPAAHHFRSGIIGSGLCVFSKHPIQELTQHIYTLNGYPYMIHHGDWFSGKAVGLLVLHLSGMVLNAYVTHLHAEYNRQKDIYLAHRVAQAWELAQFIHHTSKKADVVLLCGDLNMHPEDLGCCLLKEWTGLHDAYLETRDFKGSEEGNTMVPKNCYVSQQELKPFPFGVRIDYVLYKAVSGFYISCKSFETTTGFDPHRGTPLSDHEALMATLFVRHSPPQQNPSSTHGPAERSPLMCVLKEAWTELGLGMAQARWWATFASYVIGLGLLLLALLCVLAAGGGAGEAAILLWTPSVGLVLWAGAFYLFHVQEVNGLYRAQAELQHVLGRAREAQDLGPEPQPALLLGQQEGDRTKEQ
UniProt Q9UMY4: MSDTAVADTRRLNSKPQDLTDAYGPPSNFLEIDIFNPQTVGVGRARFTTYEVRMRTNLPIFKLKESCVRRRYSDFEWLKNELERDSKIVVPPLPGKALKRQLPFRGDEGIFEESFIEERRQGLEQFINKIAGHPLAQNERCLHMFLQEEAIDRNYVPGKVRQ
UniProt Q96R06: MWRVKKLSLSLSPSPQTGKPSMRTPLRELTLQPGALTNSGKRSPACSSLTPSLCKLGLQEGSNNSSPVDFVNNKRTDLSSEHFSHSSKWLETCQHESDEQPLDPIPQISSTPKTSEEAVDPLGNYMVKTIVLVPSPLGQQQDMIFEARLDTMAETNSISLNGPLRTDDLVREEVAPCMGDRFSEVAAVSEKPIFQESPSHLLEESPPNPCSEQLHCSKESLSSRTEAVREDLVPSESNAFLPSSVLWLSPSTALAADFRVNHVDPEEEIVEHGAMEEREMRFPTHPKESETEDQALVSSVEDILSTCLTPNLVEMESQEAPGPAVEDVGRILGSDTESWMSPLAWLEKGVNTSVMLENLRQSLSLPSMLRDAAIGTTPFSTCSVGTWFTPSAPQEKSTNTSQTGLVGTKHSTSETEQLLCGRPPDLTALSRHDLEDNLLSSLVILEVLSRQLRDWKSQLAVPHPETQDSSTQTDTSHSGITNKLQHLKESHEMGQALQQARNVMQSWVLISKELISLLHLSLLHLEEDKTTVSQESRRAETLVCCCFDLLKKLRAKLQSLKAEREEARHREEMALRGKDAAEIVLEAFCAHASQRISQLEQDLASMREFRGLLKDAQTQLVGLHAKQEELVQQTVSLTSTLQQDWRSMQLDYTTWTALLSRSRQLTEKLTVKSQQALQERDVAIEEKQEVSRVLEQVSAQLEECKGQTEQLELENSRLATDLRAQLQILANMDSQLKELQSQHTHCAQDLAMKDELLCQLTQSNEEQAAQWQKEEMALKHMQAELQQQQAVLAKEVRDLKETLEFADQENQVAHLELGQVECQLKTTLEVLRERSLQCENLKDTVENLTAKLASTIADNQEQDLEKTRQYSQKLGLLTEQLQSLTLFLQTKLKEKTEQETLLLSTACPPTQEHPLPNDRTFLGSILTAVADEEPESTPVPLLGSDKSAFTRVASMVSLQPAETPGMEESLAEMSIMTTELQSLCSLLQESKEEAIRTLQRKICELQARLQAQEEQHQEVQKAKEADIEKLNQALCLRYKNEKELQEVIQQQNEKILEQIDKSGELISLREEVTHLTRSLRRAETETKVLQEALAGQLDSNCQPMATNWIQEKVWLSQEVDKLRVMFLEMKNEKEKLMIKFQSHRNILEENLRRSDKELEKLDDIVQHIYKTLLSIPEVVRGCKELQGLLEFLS
UniProt P09661: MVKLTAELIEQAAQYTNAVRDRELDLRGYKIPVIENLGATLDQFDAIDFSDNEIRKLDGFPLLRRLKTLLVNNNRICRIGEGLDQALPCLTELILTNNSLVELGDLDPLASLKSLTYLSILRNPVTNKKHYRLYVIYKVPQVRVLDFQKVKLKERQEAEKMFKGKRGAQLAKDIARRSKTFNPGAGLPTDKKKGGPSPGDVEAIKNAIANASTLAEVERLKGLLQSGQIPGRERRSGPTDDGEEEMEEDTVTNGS
UniProt Q15599: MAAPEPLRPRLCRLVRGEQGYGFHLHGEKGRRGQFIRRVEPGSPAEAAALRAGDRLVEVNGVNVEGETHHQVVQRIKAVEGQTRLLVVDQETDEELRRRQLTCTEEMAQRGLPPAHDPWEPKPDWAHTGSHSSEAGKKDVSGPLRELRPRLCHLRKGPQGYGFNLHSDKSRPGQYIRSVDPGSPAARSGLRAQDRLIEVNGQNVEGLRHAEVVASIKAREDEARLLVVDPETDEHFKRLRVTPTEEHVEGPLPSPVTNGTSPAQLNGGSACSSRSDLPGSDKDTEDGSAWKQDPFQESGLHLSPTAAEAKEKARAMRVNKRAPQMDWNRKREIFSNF
UniProt O60493, whole entry, looked up: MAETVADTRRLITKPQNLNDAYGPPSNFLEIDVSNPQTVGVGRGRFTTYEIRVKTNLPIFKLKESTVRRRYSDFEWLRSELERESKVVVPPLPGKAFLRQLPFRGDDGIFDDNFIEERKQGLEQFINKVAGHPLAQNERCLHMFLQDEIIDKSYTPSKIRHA
UniProt P0C7P3: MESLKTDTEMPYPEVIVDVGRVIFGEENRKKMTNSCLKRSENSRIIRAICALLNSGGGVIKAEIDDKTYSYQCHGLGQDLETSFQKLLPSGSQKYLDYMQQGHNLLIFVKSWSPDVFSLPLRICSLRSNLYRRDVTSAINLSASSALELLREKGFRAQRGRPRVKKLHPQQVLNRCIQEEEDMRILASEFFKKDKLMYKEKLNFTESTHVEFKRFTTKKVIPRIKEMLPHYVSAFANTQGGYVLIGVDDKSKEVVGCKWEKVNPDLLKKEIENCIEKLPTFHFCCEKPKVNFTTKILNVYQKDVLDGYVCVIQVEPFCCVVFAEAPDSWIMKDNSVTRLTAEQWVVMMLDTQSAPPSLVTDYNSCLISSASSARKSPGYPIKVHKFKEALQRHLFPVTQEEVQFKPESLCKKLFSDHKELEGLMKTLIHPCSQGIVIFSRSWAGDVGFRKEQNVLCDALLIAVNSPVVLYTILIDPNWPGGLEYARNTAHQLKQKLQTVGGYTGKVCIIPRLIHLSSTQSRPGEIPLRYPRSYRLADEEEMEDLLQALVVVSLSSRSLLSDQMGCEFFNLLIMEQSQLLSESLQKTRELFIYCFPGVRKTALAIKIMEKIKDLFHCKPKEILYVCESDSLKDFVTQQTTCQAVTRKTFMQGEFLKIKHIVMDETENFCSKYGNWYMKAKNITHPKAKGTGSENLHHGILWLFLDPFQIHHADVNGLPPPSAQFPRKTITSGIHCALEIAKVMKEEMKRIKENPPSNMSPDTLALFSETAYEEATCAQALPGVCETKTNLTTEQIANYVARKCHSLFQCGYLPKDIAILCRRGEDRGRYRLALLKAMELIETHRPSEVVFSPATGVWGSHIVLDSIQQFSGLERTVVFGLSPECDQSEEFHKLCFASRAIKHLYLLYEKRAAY
UniProt Q96KF7: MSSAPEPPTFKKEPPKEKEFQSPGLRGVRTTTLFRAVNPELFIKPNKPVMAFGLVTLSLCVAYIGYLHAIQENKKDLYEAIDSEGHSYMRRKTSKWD

What was measured:
Test in all cases: log2 fold change, soluble protein after heating vs DMSO (PISA); higher = thermal stabilisation; K562 cells, 10 uM, 30 min; active = over 0.2 and 3.5 SD of the protein, either way, in both replicates (recomputed)
[1] = compound: COC1=CC=C(C=C1)CN2C=CC3=C2C=C(C=C3)C(=O)NO
Method in brief: (§1)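 K562 cells at 2×10^6 cells/mL were treated for 30 min with 10 μM compound, and aliquots were heated for 3 min over 48°C-58°C before pooling. Extraction used PBS with 0.5% NP-40 at 4°C, and soluble protein was the supernatant after 21,000xg for 90 min, measured by TMTpro 16plex LC-MS/MS with channel sums equalised. Thermal stability values, relative to control samples and from duplicates, are log2 fold changes.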

[2] = compound: CON(C)C(=O)N1N=C(c2cc(F)ccc2F)S[C@@]1(CCCN)c1ccccc1 [filanesib]
Method in brief: as §1

[3] = compound: CO[C@H]1C[C@@H]2CC[C@@H](C)[C@@](O)(O2)C(=O)C(=O)N2CCCC[C@H]2C(=O)O[C@H]([C@H](C)C[C@@H]2CC[C@H](n3cnnn3)[C@H](OC)C2)CC(=O)[C@H](C)/C=C(\C)[C@@H](O)[C@@H](OC)C(=O)[C@H](C)C[C@H](C)/C=C/C=C/C=C/1C [zotarolimus]
Method in brief: as §1

[4] = compound: COc1cc(C(=O)O)ccc1NC(=O)[C@@H]1N[C@@H](CC(C)(C)C)[C@](C#N)(c2ccc(Cl)cc2F)[C@H]1c1cccc(Cl)c1F [idasanutlin]
Method in brief: as §1

[5] = compound: COc1cc(Nc2ncc3c(n2)-c2ccc(Cl)cc2C(c2c(F)cccc2OC)=NC3)ccc1C(=O)O [alisertib]
Method in brief: as §1

[6] = compound: COc1cc2nc(-c3cc(F)ccc3O)nc(N[C@@H]3CNC[C@H]3C(C)(C)O)c2cc1OC
Method in brief: as §1

[7] = compound: COc1cc2ncnc(Nc3ccc(F)c(Cl)c3)c2cc1OCCCN1CCOCC1 [gefitinib]
Method in brief: as §1

[8] = compound: COc1cccc2cc(-c3nc([C@H]4CC[C@H](C(=O)O)CC4)n4ncnc(N)c34)[nH]c12
Method in brief: as §1

[9] = compound: CS(=O)(=O)CCNCc1ccc(-c2ccc3ncnc(Nc4ccc(OCc5cccc(F)c5)c(Cl)c4)c3c2)o1 [lapatinib]
Method in brief: as §1

[10] = compound: CS(=O)(=O)N1CCN(Cc2cc3nc(-c4cccc5[nH]ncc45)nc(N4CCOCC4)c3s2)CC1 [pictilisib]
Method in brief: as §1

[11] = compound: CS(=O)(=O)c1ccc(-c2cnc(N)c(C(=O)Nc3ccccc3)n2)cc1
Method in brief: as §1

[12] = compound: C[C@@H](Oc1cc(-c2cnn(C3CCNCC3)c2)cnc1N)c1c(Cl)ccc(F)c1Cl [crizotinib]
Method in brief: as §1

[13] = compound: C[C@@H]1COCCN1C2=NC(=NC(=C2)C3(CC3)S(=O)(=O)C)C4=C5C=CNC5=CC=C4
Method in brief: as §1

[14] = compound: C[C@H](C1=CC=C(C=C1)C(=O)NC2=C3C=CNC3=NC=C2)N
Method in brief: as §1

[15] = compound: C[C@H](Nc1ncnc2nc[nH]c12)c1cc2cccc(Cl)c2c(=O)n1-c1ccccc1 [duvelisib]
Method in brief: as §1

[16] = compound: Cc1cc(Nc2cc(CN3CCOCC3)c3nc(C)c(Cc4ccc(Cl)cc4F)n3n2)n[nH]1 [gandotinib]
Method in brief: as §1

[17] = compound: Cc1cc(SCc2sc(-c3ccc(C(F)(F)F)cc3)nc2C)ccc1OCC(=O)O
Method in brief: as §1

[18] = compound: Cc1ccc(-n2nc(C(C)(C)C)cc2NC(=O)Nc2ccc(OCCN3CCOCC3)c3ccccc23)cc1 [doramapimod]
Method in brief: as §1

[19] = compound: Cc1ccc(C(=O)N(CCCN)[C@@H](c2nc3cc(Cl)ccc3c(=O)n2Cc2ccccc2)C(C)C)cc1 [ispinesib]
Method in brief: as §1

[20] = compound: Cc1cc(Nc2cc(N3CCN(C)CC3)nc(Sc3ccc(NC(=O)C4CC4)cc3)n2)n[nH]1 [tozasertib]
Method in brief: as §1

Target | log2 fold change [1] | log2 fold change [2] | log2 fold change [3] | log2 fold change [4] | log2 fold change [5] | log2 fold change [6] | log2 fold change [7] | log2 fold change [8] | log2 fold change [9] | log2 fold change [10] | log2 fold change [11] | log2 fold change [12] | log2 fold change [13] | log2 fold change [14] | log2 fold change [15] | log2 fold change [16] | log2 fold change [17] | log2 fold change [18] | log2 fold change [19] | log2 fold change [20]
SNX11 (UniProt Q9Y5W9) | inactive: 0.025 | inactive: -0.128 | inactive: 0.043 | inactive: -0.008 | inactive: -0.062 | inactive: -0.15 | inactive: -0.05 | inactive: 0.038 | inactive: 0.014 | inactive: -0.173 | inactive: -0.062 | active: -0.76 | inactive: -0.021 | inactive: 0.012 | active: -0.486 | inactive: -0.378 | inactive: 0.14 | inactive: -0.017 | active: -0.536 | 
SMARCAD1 isoform 2 (UniProt Q9H4L7) | inactive: 0.027 | inactive: -0.098 | inactive: 0.028 | inactive: -0.073 | inactive: -0.026 | inactive: 0.06 | inactive: -0.062 | inactive: -0.004 | inactive: 0.026 | inactive: 0.07 | inactive: 0.029 | inactive: -0.112 | inactive: 0.088 | inactive: -0.054 |  | inactive: -0.042 | inactive: 0.15 | inactive: -0.058 | inactive: 0 | 
SNU13, A0A3B3IUA2 | inactive: -0.229 | inactive: 0.053 | inactive: -0.163 | inactive: -0.093 | inactive: -0.331 | inactive: 0.121 | inactive: -0.008 | inactive: 0.066 | inactive: -0.15 | inactive: 0.166 | inactive: -0.039 | inactive: 0 | inactive: 0.031 | inactive: 0.201 | inactive: 0.165 | inactive: -0.187 | inactive: -0.093 | inactive: 0.072 | inactive: -0.251 | inactive: -0.079
SMAP (UniProt O00193) | inactive: -0.046 | inactive: -0.154 | inactive: -0.018 | inactive: 0.005 | inactive: -0.01 | inactive: 0.02 | inactive: 0.033 | inactive: 0.051 | inactive: -0.013 | inactive: -0.016 | inactive: 0.004 | inactive: -0.06 | inactive: -0.01 | inactive: -0.082 |  | inactive: -0.032 | inactive: -0.03 | inactive: 0.023 | inactive: -0.015 | 
SMC1A (UniProt Q14683) | inactive: 0.072 | inactive: 0.037 | inactive: 0.014 | inactive: 0.001 | inactive: -0.031 | inactive: -0.007 | inactive: 0.005 | inactive: 0.028 | inactive: -0.006 | inactive: 0.053 | inactive: 0.017 | inactive: 0.051 | inactive: 0.039 | inactive: -0.105 | inactive: 0.049 | inactive: 0.001 | inactive: -0.003 | inactive: -0.02 | inactive: 0.054 | inactive: 0.007
SMC1B isoform 3 (UniProt Q8NDV3) | inactive: -0.081 | inactive: 0.009 | inactive: 0.027 | inactive: 0.076 | inactive: -0.022 | inactive: -0.108 | inactive: -0.035 | inactive: 0.101 | inactive: 0.026 | inactive: -0.015 | inactive: 0.04 | inactive: 0.016 | inactive: 0.019 | inactive: -0.062 | inactive: 0.034 | inactive: -0.041 | inactive: -0.011 | inactive: 0.004 | inactive: -0.044 | inactive: 0.054
SMPD2 (UniProt O60906) | inactive: -0.123 | inactive: -0.052 | inactive: -0.035 | inactive: 0.001 | inactive: -0.008 | inactive: -0.17 | inactive: 0.064 | inactive: 0.102 | inactive: 0.052 | inactive: -0.023 | inactive: 0.004 | inactive: -0.063 | inactive: -0.101 | inactive: -0.088 | inactive: 0.139 | inactive: -0.04 | inactive: -0.03 | inactive: 0.03 | inactive: -0.115 | inactive: -0.094
SNX12 isoform 1 (UniProt Q9UMY4) | inactive: -0.029 | inactive: -0.027 | inactive: -0.007 | inactive: 0.039 | inactive: 0.005 | inactive: -0.008 | inactive: 0.035 | inactive: 0.09 | inactive: -0.006 | inactive: -0.002 | inactive: 0.004 | inactive: -0.055 | inactive: 0.081 | inactive: 0.007 |  | inactive: -0.204 | inactive: 0.044 | inactive: -0.036 | inactive: -0.097 | 
SPAG5 (UniProt Q96R06) | inactive: -0.023 | inactive: 0.3 | inactive: 0.067 | inactive: -0.002 | inactive: -0.156 | inactive: -0.146 | inactive: -0.092 | inactive: -0.174 | inactive: 0.047 | inactive: -0.086 | inactive: 0.028 | inactive: -0.175 | inactive: -0.136 | inactive: 0.242 | inactive: -0.069 | inactive: 0.004 | inactive: 0.06 | inactive: 0.234 | inactive: -0.435 | inactive: 0.107
SNRPA1 (UniProt P09661) | inactive: -0.006 | inactive: -0.001 | inactive: 0 | inactive: 0.049 | inactive: -0.149 | inactive: 0.029 | inactive: -0.025 | inactive: -0.012 | inactive: 0.027 | inactive: 0.074 | inactive: -0.087 | inactive: -0.015 | inactive: -0.037 | inactive: -0.014 | inactive: -0.006 | inactive: -0.013 | inactive: -0.103 | inactive: 0.008 | inactive: 0.103 | inactive: -0.013
SLC9A3R2 (UniProt Q15599) | inactive: -0.03 | inactive: 0.035 | inactive: -0.036 | inactive: 0.023 | inactive: -0.097 | inactive: -0.06 | inactive: 0.022 | inactive: 0.02 | inactive: 0.059 | inactive: -0.047 | inactive: -0.047 | inactive: 0 | inactive: -0.005 | inactive: -0.042 | inactive: -0.018 | inactive: -0.016 | inactive: -0.012 | inactive: 0.031 | inactive: 0.043 | inactive: -0.026
SNX3 (UniProt O60493) | inactive: -0.049 | inactive: 0.012 | inactive: 0.022 | inactive: 0.075 | inactive: 0.074 | inactive: -0.08 | inactive: 0.01 | inactive: 0.056 | inactive: -0.026 | inactive: -0.03 | inactive: -0.035 | inactive: -0.106 | inactive: 0.062 | inactive: 0.048 | active: -0.385 | inactive: -0.164 | inactive: 0.085 | inactive: 0.04 | inactive: -0.141 | 
SLFN14 (UniProt P0C7P3) | inactive: -0.181 | inactive: -0.275 | inactive: 0.034 | inactive: 0.167 | inactive: 0.136 | inactive: 0.192 | inactive: 0.007 | inactive: -0.026 | inactive: 0.005 | inactive: 0.056 | inactive: 0.012 | inactive: 0.261 | inactive: 0.303 | inactive: 0.162 | inactive: -0.427 | inactive: 0.053 | inactive: 0.263 | inactive: -0.004 | inactive: -0.203 | inactive: -0.11
SMIM8 (UniProt Q96KF7) | inactive: -0.044 | inactive: -0.09 | inactive: 0.037 | inactive: -0.11 | inactive: -0.097 | inactive: 0.013 | inactive: 0.024 | inactive: 0.088 | inactive: -0.035 | inactive: 0.056 | inactive: 0.162 | inactive: 0.116 | inactive: 0.167 | inactive: 0.008 | inactive: 0.027 | inactive: -0.109 | inactive: -0.035 | inactive: -0.054 | inactive: 0.034 | inactive: 0.004
SNRPB isoform 3 (UniProt P14678) | inactive: -0.046 | inactive: 0.079 | inactive: -0.015 | inactive: 0.041 | inactive: -0.05 | inactive: -0.014 | inactive: -0.056 | inactive: 0.016 | inactive: 0.036 | inactive: -0.066 | inactive: -0.021 | inactive: 0 | inactive: -0.097 | inactive: -0.01 | inactive: -0.024 | inactive: 0.034 | inactive: -0.037 | inactive: 0.099 | inactive: 0.308 | inactive: 0.021

An excerpt from above, showing only log2 fold change [17] and log2 fold change [9].
Target	log2 fold change [17]	log2 fold change [9]
SNX11 (UniProt Q9Y5W9)	inactive: 0.14	inactive: 0.014
SPAG5 (UniProt Q96R06)	inactive: 0.06	inactive: 0.047
